No constants are given. Whether binding was seen depends on the method and setting. In cells and extracts the contact can be indirect. Here binding means that the protein was enriched with, or labelled near, the bait; the list need not be complete. Where a sequence is shown, tags or fusion partners need not be part of it.
Biological target: T1, HA-tagged VDR (vitamin D receptor), wild type (human) (UniProt P11473)
T1 sequence (acetylated lysine at 91 (K91Ac), looked up): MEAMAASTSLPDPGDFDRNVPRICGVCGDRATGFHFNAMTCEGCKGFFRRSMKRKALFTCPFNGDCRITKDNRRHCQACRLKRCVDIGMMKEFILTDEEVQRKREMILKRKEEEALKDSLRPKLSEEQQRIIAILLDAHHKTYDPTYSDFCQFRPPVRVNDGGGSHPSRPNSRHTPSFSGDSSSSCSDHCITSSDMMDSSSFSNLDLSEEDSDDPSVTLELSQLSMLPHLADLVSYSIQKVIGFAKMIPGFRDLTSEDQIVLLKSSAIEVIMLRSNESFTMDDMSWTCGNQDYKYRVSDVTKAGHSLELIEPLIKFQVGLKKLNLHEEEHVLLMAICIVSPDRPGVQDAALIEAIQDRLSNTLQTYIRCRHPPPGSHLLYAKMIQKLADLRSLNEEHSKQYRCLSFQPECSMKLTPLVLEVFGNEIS
Assay: immunoprecipitation of HA-VDR from human beta-like cells, mass spectrometry (FIG. 4A)

Protein sequences, listed by entry. Tags and fused reporters are not part of them.
UniProt Q9H8M2: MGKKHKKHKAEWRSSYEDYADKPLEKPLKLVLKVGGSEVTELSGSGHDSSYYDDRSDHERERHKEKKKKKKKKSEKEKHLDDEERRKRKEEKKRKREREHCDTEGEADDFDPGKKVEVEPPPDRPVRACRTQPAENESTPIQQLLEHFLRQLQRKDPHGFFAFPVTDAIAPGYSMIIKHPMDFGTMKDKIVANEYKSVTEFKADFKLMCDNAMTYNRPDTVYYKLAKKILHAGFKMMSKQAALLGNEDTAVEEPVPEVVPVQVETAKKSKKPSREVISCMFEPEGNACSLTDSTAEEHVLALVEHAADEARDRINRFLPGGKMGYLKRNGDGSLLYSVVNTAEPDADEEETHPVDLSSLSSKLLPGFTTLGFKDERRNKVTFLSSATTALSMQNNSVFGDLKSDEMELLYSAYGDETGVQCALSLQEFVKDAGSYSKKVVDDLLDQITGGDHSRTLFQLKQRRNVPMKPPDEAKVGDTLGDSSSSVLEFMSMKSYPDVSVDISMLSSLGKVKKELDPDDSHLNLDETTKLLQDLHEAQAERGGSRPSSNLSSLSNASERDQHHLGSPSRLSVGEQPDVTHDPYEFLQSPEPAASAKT
UniProt Q9NPI1: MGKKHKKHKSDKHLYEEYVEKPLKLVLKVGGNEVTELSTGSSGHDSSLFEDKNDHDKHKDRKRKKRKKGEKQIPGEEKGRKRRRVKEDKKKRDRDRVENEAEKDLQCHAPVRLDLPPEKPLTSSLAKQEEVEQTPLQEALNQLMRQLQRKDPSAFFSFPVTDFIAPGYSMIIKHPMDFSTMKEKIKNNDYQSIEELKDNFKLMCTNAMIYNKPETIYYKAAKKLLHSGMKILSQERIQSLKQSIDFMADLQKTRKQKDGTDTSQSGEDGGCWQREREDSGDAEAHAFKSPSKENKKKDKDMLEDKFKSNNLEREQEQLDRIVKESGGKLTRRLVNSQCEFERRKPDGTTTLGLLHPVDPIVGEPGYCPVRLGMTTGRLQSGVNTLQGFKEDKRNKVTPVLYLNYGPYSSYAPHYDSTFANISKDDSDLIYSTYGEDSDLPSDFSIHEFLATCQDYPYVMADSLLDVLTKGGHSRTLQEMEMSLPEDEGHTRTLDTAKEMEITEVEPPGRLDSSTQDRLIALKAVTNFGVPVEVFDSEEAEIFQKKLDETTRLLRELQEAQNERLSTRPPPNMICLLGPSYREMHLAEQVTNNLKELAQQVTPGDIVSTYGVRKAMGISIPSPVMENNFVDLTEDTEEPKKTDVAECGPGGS

Substance | binding
endogenous bromodomain-containing protein 9 (BRD9) (from UniProt Q9H8M2 1-597) | binds
endogenous BRD7 (human beta-like cells) (from UniProt Q9NPI1 1-651) | binds

Source: patent US20200129532A1
